In the assay the target is T1, OTUD1-FLAG (pcDNA3.1-OTUD1-FLAG) (UniProt Q5VV17).
T1 sequence: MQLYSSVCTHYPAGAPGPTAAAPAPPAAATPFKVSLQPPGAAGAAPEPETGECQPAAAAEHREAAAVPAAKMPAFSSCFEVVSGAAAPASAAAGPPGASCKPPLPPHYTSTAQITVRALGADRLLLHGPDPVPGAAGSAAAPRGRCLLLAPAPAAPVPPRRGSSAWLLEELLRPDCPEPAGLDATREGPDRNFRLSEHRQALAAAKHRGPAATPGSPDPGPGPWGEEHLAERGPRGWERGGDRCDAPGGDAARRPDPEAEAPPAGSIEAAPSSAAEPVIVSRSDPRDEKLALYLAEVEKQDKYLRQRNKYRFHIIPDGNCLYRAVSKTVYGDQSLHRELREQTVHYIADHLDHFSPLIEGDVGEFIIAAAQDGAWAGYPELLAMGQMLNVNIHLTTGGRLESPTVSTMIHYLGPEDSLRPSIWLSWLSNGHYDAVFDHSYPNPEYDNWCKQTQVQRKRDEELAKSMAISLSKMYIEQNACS
In words: co-IP; exogenous OTUD1 and SLC25A11; sonicated cell lysate in IP lysis buffer, 3 ug antibody overnight at 4 °C, Protein A/G magnetic beads, western blot. (Immunoblotting shows a protein as a band on a membrane.)

Results are given in words; binding and its absence hold for the method and conditions named. Binding seen in cells or lysates may run through a third protein. Some results given as binding are weak or reduced against the parent protein; the word gives no strength. Sequences can lack the tags named with a protein.

B1: SLC25A11-HA (pcDNA3.1-SLC25A11-HA) (protein, UniProt Q02978 1-314)
chain: MAATASAGAGGIDGKPRTSPKSVKFLFGGLAGMGATVFVQPLDLVKNRMQLSGEGAKTREYKTSFHALTSILKAEGLRGIYTGLSAGLLRQATYTTTRLGIYTVLFERLTGADGTPPGFLLKAVIGMTAGATGAFVGTPAEVALIRMTADGRLPADQRRGYKNVFNALIRITREEGVLTLWRGCIPTMARAVVVNAAQLASYSQSKQFLLDSGYFSDNILCHFCASMISGLVTTAASMPVDIAKTRIQNMRMIDGKPEYKNGLDVLFKVVRYEGFFSLWKGFTPYYARLGPHTVLTFIFLEQMNKAYKRLFLSG
In the case of B1, the binding entry is recorded as “binds”.
